Measured values taken from publication PMC10894303.
Results are given in words; binding and its absence hold for the method and conditions named. Binding seen in cells or lysates may run through a third protein. A yes stands for co-enrichment or nearness to the bait. Other partners may have been found.

Protein sequences, listed by entry. Tags and fused reporters are not part of them.
UniProt Q93009: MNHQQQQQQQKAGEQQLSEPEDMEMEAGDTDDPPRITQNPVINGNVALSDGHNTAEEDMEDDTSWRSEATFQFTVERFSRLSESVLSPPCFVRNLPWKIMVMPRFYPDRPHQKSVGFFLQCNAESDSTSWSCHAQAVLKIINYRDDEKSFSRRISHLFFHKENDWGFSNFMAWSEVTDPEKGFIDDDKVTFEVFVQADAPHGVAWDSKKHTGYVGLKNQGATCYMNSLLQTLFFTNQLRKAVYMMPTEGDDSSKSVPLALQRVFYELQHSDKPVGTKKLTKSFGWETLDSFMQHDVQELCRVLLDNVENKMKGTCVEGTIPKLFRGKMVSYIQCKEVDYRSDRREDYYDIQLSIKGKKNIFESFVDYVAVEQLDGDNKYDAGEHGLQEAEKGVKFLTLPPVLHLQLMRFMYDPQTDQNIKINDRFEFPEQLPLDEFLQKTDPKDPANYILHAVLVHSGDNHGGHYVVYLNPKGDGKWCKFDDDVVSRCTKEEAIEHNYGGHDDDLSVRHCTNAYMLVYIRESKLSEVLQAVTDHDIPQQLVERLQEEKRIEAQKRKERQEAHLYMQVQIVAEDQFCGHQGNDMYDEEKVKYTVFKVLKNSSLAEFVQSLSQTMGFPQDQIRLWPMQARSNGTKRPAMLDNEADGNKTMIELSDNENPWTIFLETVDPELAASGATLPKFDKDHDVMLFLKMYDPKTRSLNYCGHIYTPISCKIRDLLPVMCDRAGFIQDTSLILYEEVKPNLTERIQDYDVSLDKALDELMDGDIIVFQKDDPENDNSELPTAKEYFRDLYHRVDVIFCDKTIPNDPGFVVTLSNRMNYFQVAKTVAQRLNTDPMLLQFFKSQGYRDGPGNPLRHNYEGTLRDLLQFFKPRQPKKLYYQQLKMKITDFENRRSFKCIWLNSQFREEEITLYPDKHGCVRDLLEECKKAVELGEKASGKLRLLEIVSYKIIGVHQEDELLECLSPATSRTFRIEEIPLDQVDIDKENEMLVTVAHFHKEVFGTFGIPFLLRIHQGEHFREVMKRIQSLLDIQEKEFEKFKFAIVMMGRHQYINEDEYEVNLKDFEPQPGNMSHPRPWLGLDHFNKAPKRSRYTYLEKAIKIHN

Molecular target: T1, Pol ι (bait of the silver stain / mass spectrometry experiment) (UniProt Q9UNA4)
T1 sequence: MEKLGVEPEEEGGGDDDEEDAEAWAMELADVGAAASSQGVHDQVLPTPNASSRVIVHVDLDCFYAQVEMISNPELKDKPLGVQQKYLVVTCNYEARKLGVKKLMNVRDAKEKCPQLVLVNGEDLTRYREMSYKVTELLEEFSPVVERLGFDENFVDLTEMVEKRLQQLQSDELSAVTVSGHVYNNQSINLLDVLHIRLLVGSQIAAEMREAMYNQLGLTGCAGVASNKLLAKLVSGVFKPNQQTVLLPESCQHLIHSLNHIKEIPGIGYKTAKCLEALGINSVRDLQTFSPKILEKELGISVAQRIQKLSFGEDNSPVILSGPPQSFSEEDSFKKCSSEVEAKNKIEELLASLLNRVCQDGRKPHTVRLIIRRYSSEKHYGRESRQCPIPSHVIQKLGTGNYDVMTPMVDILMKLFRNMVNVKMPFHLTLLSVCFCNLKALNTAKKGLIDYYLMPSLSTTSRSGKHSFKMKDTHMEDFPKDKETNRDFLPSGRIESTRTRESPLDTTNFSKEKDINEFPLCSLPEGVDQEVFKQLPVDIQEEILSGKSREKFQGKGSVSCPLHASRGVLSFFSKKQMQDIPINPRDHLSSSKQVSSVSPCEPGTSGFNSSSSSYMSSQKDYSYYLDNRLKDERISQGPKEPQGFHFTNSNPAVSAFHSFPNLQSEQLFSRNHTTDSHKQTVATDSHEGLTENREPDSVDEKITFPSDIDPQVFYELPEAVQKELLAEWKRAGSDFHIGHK
Assay: affinity purification with mass spectrometry; proteins bound to Pol ι separated by SDS-PAGE, silver-stained, analysed by mass spectrometry; bait construct and cells not stated

For “USP7 (found by mass spectrometry among Pol ι bound proteins) (from UniProt Q93009 1-1102) (enzyme)”, the binding was “binds”.
